The structures appear in SMILES notation.

The test system of assay [1] is Mus musculus. The assay is described as follows: Effect on plasma triglyceride level in LDL receptor/ApoE deficient mouse at 80 to 100 mg/kg/day mixed with R3 chow diet relative to untreated control. The format is functional.
Assay [2] has as its system Mus musculus. The assay is described as follows: Reduction in plasma total cholesterol level in LDL receptor/ApoE deficient mouse at 80 to 100 mg/kg/day mixed with R3 chow diet by FPLC method relative to untreated control. The format is functional. Details: scale not given: the % may be the effect or the level left.

Turning to `CC(C)c1c(C(=O)Nc2ccccc2)c(-c2ccccc2)c(-c2ccc(F)cc2)n1CC[C@@H](O)C[C@@H](O)CC(=O)[O-].CC(C)c1c(C(=O)Nc2ccccc2)c(-c2ccccc2)c(-c2ccc(F)cc2)n1CC[C@@H](O)C[C@@H](O)CC(=O)[O-].[Ca+2]` [ATORVASTATIN CALCIUM], the values for the Activity in assay [1] and in assay [2] were 59% and 24%, respectively.

The values above are taken from ChEMBL document CHEMBL3881524, “Use of benzothiazepines having activity as inhibitors of ileal bile acid transport for reducing cholesterololemia” (2005).
